The target of the experiment is human PAC1R, C-terminally truncated after S417 (cryo-EM construct) (human) (UniProt P41586). Kind of experiment: cryo-EM structure.

Sequences of proteins named here, by UniProt entry; tags and fusion partners are left off. Residues count along the entry.
UniProt P41586, residues 21-417: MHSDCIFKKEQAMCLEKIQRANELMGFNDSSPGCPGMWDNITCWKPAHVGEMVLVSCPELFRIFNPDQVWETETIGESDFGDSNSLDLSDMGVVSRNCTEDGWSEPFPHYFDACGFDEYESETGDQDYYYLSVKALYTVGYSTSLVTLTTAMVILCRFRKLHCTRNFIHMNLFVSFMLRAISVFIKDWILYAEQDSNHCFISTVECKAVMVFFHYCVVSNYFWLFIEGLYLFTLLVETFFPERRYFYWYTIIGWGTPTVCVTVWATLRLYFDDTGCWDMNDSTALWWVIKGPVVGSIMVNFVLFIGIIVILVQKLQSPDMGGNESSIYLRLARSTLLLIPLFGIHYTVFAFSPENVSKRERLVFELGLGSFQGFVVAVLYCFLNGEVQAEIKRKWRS

These are yes or no findings as the source states them, for the method shown.

Consider “human PAC1R, C-terminally truncated after S417 (cryo-EM construct) (from UniProt P41586 21-417) (receptor)”, for which the binding result is “no binding”.

For the origin of these results see publication doi:10.1101/2019.12.23.887737.
